Measurements reported in PubChem BioAssay AID1224830 (NIAID, 2016).
The whole screen tested about 18,000 reagents; this is an unselected part. About 2,900 of them (16%) count as active. 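Calls are made per well; low scores hint the gene aids the LPS response, high scores that it dampens it.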 Unmarked entries are inactive. Repeated entries: four replicate wells of each siRNA pool.

Screen: 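Host factors that control LPS-induced TNF expression in human macrophages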 (primary screen)
Cell system: human THP-1 monocytic leukaemia cells, TNF dual-luciferase reporter clone, PMA-differentiated to macrophage-like cells
Reagents: siRNA pool against human genes, 50 nM
Timing: LPS for 4 h, given about 3 days after siRNA transfection
Challenge: bacterial LPS (TLR4 ligand), 10 ng/ml
Measurement: 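TNF firefly reporter luminescence divided by renilla, normalised to the plate median, then turned into a robust z-score for each replicate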
Reading the numbers: TNF reporter robust z-score: higher = stronger TNF reporter response to LPS
Hit rule: 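Each well counts as active if its z-score is over 2.8 or under -1.5; controls are left without a call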

gene symbol	TNF reporter robust z-score
TSC22D2 (TSC22 domain family member 2)	2.14
TSC22D2 (TSC22 domain family member 2)	0.49
TSC22D2 (TSC22 domain family member 2)	0.69
TSC22D2 (TSC22 domain family member 2)	0.57
DGKQ (diacylglycerol kinase theta)	-1.41
DGKQ (diacylglycerol kinase theta)	-1.21
DGKQ (diacylglycerol kinase theta)	0.75
DGKQ (diacylglycerol kinase theta)	0.68
FHDC1 (FH2 domain containing 1)	-0.4
FHDC1 (FH2 domain containing 1)	-0.63
FHDC1 (FH2 domain containing 1)	-0.05
FHDC1 (FH2 domain containing 1)	0.26
PRR34 (PRR34 long non-coding RNA)	-0.88
PRR34 (PRR34 long non-coding RNA)	-0.05
PRR34 (PRR34 long non-coding RNA)	-0.79
PRR34 (PRR34 long non-coding RNA)	-1.33
ELOVL3 (ELOVL fatty acid elongase 3)	1.16
ELOVL3 (ELOVL fatty acid elongase 3)	1.47
ELOVL3 (ELOVL fatty acid elongase 3)	-0.37
ELOVL3 (ELOVL fatty acid elongase 3)	1.66
SLAIN1 (SLAIN family member 1)	1.47
SLAIN1 (SLAIN family member 1)	1.12
SLAIN1 (SLAIN family member 1)	1.22
SLAIN1 (SLAIN family member 1)	2.15
HDAC9 (histone deacetylase 9)	0.32
HDAC9 (histone deacetylase 9)	0.97
HDAC9 (histone deacetylase 9)	-0.01
HDAC9 (histone deacetylase 9)	1.37
GPR31 (G protein-coupled receptor 31)	0.75
GPR31 (G protein-coupled receptor 31)	-0.01
GPR31 (G protein-coupled receptor 31)	0.29
GPR31 (G protein-coupled receptor 31)	1.21
CIMIP6 (ciliary microtubule inner protein 6)	2.11
CIMIP6 (ciliary microtubule inner protein 6)	1.92
CIMIP6 (ciliary microtubule inner protein 6)	0.99
CIMIP6 (ciliary microtubule inner protein 6)	2.18
RASSF10 (Ras association domain family member 10)	1
RASSF10 (Ras association domain family member 10)	0.91
RASSF10 (Ras association domain family member 10)	0.4
RASSF10 (Ras association domain family member 10)	1.3
ZNF354C (zinc finger protein 354C)	-0.2
ZNF354C (zinc finger protein 354C)	0.29
ZNF354C (zinc finger protein 354C)	5.19 (active)
ZNF354C (zinc finger protein 354C)	0.18
ZNF700 (zinc finger protein 700)	1.04
ZNF700 (zinc finger protein 700)	-0.1
ZNF700 (zinc finger protein 700)	-1.07
ZNF700 (zinc finger protein 700)	0.67

3 entries from above in another layout:
SLAIN1 (SLAIN family member 1)
- TNF reporter robust z-score: 1.47

SLAIN1 (SLAIN family member 1)
- TNF reporter robust z-score: 1.12

SLAIN1 (SLAIN family member 1)
- TNF reporter robust z-score: 1.22
